Results reported in publication PMC11335345.
Results are given in words; binding and its absence hold for the method and conditions named. Binding seen in cells or lysates may run through a third protein. These calls come from enrichment with a bait or labelling near it, and not all partners need be listed. Where a sequence is shown, tags or fusion partners need not be part of it.

Target: T1, FBXO24-3×FLAG expressed in testes of transgenic mice under the Prm1 promoter (mouse) (UniProt Q9D417)
T1 sequence: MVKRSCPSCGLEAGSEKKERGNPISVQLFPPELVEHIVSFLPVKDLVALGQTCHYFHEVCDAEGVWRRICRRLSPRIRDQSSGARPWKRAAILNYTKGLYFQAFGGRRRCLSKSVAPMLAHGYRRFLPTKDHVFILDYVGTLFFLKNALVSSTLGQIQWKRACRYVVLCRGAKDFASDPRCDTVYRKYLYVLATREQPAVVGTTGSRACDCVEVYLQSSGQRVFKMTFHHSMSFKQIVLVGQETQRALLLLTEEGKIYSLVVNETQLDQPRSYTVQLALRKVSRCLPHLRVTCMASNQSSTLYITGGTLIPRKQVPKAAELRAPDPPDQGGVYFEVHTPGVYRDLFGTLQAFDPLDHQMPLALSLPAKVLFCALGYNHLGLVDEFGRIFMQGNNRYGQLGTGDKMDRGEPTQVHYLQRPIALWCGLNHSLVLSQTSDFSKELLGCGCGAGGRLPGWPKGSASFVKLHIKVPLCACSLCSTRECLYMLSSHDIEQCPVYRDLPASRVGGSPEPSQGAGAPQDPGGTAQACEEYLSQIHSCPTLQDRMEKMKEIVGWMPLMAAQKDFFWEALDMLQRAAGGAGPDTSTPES
Assay: affinity purification with mass spectrometry; IP of FBXO24-FLAG from Fbxo24-FLAG Tg mouse testes with anti-FLAG antibody; elution with 3×FLAG peptide; MS

B1: IPO5 (importin 5), endogenous in mouse testis (protein, UniProt Q8BKC5 1-1097)
chain: MAAAAAEQQQFYLLLGNLLSPDNVVRKQAEETYENIPGRSKITFLLQAIRNTTAAEEARQMAAVLLRRLLSSAFDEVYPALPSDVQTAIKSELLMIIQMETQSSMRKKICDIAAELARNLIDEDGNNQWPEGLKFLFDSVSSQNMGLREAALHIFWNFPGIFGNQQQHYLDVIKRMLVQCMQDQEHPSIRTLSARATAAFILANEHNVALFKHFADLLPGFLQAVNDSCYQNDDSVLKSLVEIADTVPKYLRPHLEATLQLSLKLCGDTNLNNMQRQLALEVIVTLSETAAAMLRKHTSLIAQTIPQMLAMMVDLEEDEDWANADELEDDDFDSNAVAGESALDRMACGLGGKLVLPMIKEHIMQMLQNPDWKYRHAGLMALSAIGEGCHQQMEGILNEIVNFVLLFLQDPHPRVRYAACNAVGQMATDFAPGFQKKFHEKVIAALLQTMEDQGNQRVQAHAAAALINFTEDCPKSLLIPYLDNLVKHLHSIMVLKLQELIQKGTKLVLEQVVTSIASVADTAEEKFVPYYDLFMPSLKHIVENAVQKELRLLRGKTIECISLIGLAVGKEKFMQDASDVMQLLLKTQTDFNDMEDDDPQISYMISAWARMCKILGKEFQQYLPVVMGPLMKTASIKPEVALLDTQDMENMSDDDGWEFVNLGDQQSFGIKTAGLEEKSTACQMLVCYAKELKEGFVEYTEQVVKLMVPLLKFYFHDGVRVAAAESMPLLLECARVRGPEYLTQMWHFMCDALIKAIGTEPDSDVLSEIMHSFAKCIEVMGDGCLNNEHFEELGGILKAKLEEHFKNQELRQVKRQDEDYDEQVEESLQDEDDNDVYILTKVSDILHSIFSSYKEKVLPWFEQLLPLIVNLICPQRPWPDRQWGLCIFDDIVEHCSPASFKYAEYFISPMLQYVCDNSPEVRQAAAYGLGVMAQFGGDNYRPFCTDALPLLVRVIQAPEAKTKENVNATENCISAVGKIMKFKPDCVNVEEVLPHWLSWLPLHEDKEEAVQTFSYLCDLIESNHPIVLGPNNTNLPKIFSIIAEGEMHEAIKHEDPCAKRLANVVRQVQTSGGLWTECIAQLSPEQQAAIQELLNSA
In the case of B1, the binding is reported as “binds”.
